Assay results as given in paper PMC9651203.
No constants are given. Whether binding was seen depends on the method and setting. In cells and extracts the contact can be indirect. Binding can be weak; no strength is given.

Molecular target: Mycoplasma fermentans DnaK-V5-His (Mycoplasma fermentans)
Assay: co-IP

B1: DNA ligase 3 (protein, UniProt P49916 43-1009)
chain: LLHGHPLFLRRKPVLSFQGSHLRSRATYLVFLPGLHVGLCSGPCEMAEQRFCVDYAKRGTAGCKKCKEKIVKGVCRIGKVVPNPFSESGGDMKEWYHIKCMFEKLERARATTKKIEDLTELEGWEELEDNEKEQITQHIADLSSKAAGTPKKKAVVQAKLTTTGQVTSPVKGASFVTSTNPRKFSGFSAKPNNSGEAPSSPTPKRSLSSSKCDPRHKDCLLREFRKLCAMVADNPSYNTKTQIIQDFLRKGSAGDGFHGDVYLTVKLLLPGVIKTVYNLNDKQIVKLFSRIFNCNPDDMARDLEQGDVSETIRVFFEQSKSFPPAAKSLLTIQEVDEFLLRLSKLTKEDEQQQALQDIASRCTANDLKCIIRLIKHDLKMNSGAKHVLDALDPNAYEAFKASRNLQDVVERVLHNAQEVEKEPGQRRALSVQASLMTPVQPMLAEACKSVEYAMKKCPNGMFSEIKYDGERVQVHKNGDHFSYFSRSLKPVLPHKVAHFKDYIPQAFPGGHSMILDSEVLLIDNKTGKPLPFGTLGVHKKAAFQDANVCLFVFDCIYFNDVSLMDRPLCERRKFLHDNMVEIPNRIMFSEMKRVTKALDLADMITRVIQEGLEGLVLKDVKGTYEPGKRHWLKVKKDYLNEGAMADTADLVVLGAFYGQGSKGGMMSIFLMGCYDPGSQKWCTVTKCAGGHDDATLARLQNELDMVKISKDPSKIPSWLKVNKIYYPDFIVPDPKKAAVWEITGAEFSKSEAHTADGISIRFPRCTRIRDDKDWKSATNLPQLKELYQLSKEKADFTVVAGDEGSSTTGGSSEENKGPSGSAVSRKAPSKPSASTKKAEGKLSNSNSKDGNMQTAKPSAMKVGEKLATKSSPVKVGEKRKAADETLCQTKVLLDIFTGVRLYLPPSTPDFSRLRRYFVAFDGDLVQEFDMTSATHVLGSRDKNPAAQQVSPEWIWACIRKRRLVAPC
For B1, the binding was “binds”.
